Primary screen of a compound library

By UniProt entry, the sequences of proteins in these tests, tags left out. Residues count along the entry.
UniProt Q8IDJ8, 1-583: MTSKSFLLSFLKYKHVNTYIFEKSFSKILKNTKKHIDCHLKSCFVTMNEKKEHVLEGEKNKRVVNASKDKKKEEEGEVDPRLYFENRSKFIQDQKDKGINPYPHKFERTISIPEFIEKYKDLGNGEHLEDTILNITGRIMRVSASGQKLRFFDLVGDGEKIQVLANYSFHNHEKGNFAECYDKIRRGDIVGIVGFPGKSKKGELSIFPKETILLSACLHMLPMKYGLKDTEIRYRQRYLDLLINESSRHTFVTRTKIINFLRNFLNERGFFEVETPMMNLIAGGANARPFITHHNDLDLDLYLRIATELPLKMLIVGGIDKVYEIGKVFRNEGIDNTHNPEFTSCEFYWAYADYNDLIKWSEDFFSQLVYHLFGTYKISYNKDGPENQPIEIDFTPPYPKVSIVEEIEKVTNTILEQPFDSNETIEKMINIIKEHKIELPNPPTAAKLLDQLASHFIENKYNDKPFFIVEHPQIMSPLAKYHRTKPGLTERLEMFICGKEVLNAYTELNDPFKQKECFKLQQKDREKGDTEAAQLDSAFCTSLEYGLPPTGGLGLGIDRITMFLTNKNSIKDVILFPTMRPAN

From ChEMBL document CHEMBL3988442, “University of Dundee, Small-Polar-MMV Screening Library” (2021).

A: 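Assay of Toxoplasma gondii numbers, read through their beta-galactosidase reporter with a colour substrate. Tested at 10 µM. The record gives no direction; the compounds picked for IC50 retests had high values, so higher reads as fewer parasites. Of about 67,000 compounds tested this way, about 260 (0.38%) reached 50% or more in at least one test.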
B: 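Whole-parasite assay of Trypanosoma brucei over 72 hours; the read-out is not stated. Tested at 30 µM. Direction is inferred from retests: higher values go with stronger inhibition. Values scatter widely below zero; nearly all retest evidence comes from the higher of the two concentrations used. Of about 64,000 compounds tested this way, about 940 (1.5%) reached 50% or more in at least one test.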
C: 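Cell assay of Leishmania donovani living inside macrophages; the read-out is not stated. Tested at 30 µM. The record gives no direction; compounds that gave an IC50 in retests scored well above the rest, so higher reads as stronger inhibition. Size under these conditions: about 69,000 compounds, about 1,000 of them at 50% or above in at least one test.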
D: 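Lysine-tRNA ligase, Plasmodium falciparum 3D7 (UniProt Q8IDJ8). Enzyme assay of the cytosolic lysyl-tRNA synthetase in 384-well plates, read by luminescence. Compounds at 30 µM. Higher reads as stronger inhibition, judged from the few compounds that gave an IC50. Of about 69,000 compounds tested this way, about 49 (0.071%) reached 50% or more in at least one test.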

Results are given as percent effect.
The record does not define 0% and 100%; most values in the screen are far below 50% and negative numbers occur (in some assays of this library far below -100).
This is an unselected part of the compounds tested.
A dash means the value is not listed here; it may have been measured.

O=C(OCCNc1ncccn1)c1ccc(Br)s1 gave A: 4.716%; B: -45.38%; C: -26.15%; D: 2.742%.
CN1CC(c2ccccc2)CC12CCN(C(=O)c1ccc(Cl)cc1)CC2 (stereo not shown) gave A: -9.37%; B: -11.18%; C: 1.505%; D: 9.503%.
Cc1noc(-c2cccnc2N2CCN(c3cnn(C)c3)CC2)n1 gave A: 1.658%; B: 13.31%; C: 3.971%; D: 4.311%.
CC(C)C(=O)N1CCC2(CCCN(CCOc3ccccc3)C2)C1 (stereo not shown) gave A: 1.584%; B: 2.477%; C: 36.22%; D: -0.08807%.
COc1ccc(-c2ccnc(N)c2)c(OC)c1 gave A: 21.28%; B: 4.018%; C: 31.46%; D: -2.195%.
CC(NC(=O)NCc1cc(Br)cs1)c1ccccn1 (stereo not shown) gave A: 25.48%; C: 22.4%; D: -0.335%.
Cc1ccc(O[C@@H]2C[C@H]3CN(C(=O)c4cccnc4)CCN3C2)cc1 gave D: 10.21%.
CCOCC1CN(Cc2ccsc2)Cc2cnn(C)c21 (stereo not shown) gave A: 23.99%; B: -50.16%; C: -3.455%; D: -1.945%.
CCOc1ccc(CNC2CCCN(c3cccnn3)C2)cc1OC (stereo not shown) gave A: -10.14%; B: 25.64%; C: 14.63%; D: 0.3394%.
CN(C)c1cc(N(C)Cc2cc(C(C)(C)C)n[nH]2)ncn1 gave A: 0.9148%; B: -62.96%; C: 22.22%; D: -1.709%.
COCc1ncn2c1CN(C(=O)c1ccc[nH]1)CC2 gave A: 30%; B: -40.29%; C: -4.016%; D: 5.139%.
Cc1cccc(C(=O)N2CCCC[C@]3(C)NC(=O)CCC[C@H]23)n1 gave D: -0.1306%.
O=C(C1=CCCC1)N1CCC[C@]2(C[C@@H](Oc3ncccc3F)CO2)C1 gave D: 5.637%.
CO[C@H]1CC[C@H]2[C@H]1OCCN2C(=O)C1=CCCC1 gave D: -5.028%.
O=S(=O)(NC1=NCN(CCc2cccs2)CN1)c1ccc(Br)cc1 gave A: 9.356%; B: -38.76%; C: 0.4649%; D: 2.255%.
CCN(C)S(=O)(=O)c1c(F)cc(NC(C)=O)cc1F gave A: -6.21%; B: 3.777%; C: 10.91%; D: 4.758%.
CCN1CCCN(C(=O)c2ccc(NC(=O)CC(C)C)c(C)c2)CC1 gave A: 15.44%; B: -11.09%; C: 6.541%; D: 2.102%.
Cc1ccc(C(=O)N2CCc3c(CNS(C)(=O)=O)cncc3C2)o1.Cl gave A: 3.419%; B: -5.019%; C: -21.99%.
O=C(c1ccsc1)N1CCO[C@@H]2CN(Cc3ccco3)CC[C@@H]2C1 gave D: 3.599%.
CNS(=O)(=O)c1ccc(C(=O)N2CCCC(n3cccn3)C2)cc1 (stereo not shown) gave A: -5.787%; B: 7.048%; C: 9.398%; D: -2.389%.
COC(=O)c1cccn1C1CCN(CC(=O)NC2CCCCC2)CC1 gave A: 1.78%; B: 5.761%; C: 36.97%; D: 2.61%.
CC(=O)Nc1ccc(Oc2cc(C)nc(C3CCNCC3)c2)cc1 gave D: 0.4958%.
O=C(C1CC1)N1CCC[C@]2(C[C@@H](OCc3ccncc3)CO2)C1 gave D: 3.783%.
CCOC(=O)N1CCN(C(=O)C2CC(=O)N(c3ccccc3Br)C2)CC1 (stereo not shown) gave A: 5.385%; B: 34.37%; C: 15.14%; D: 1.76%.
[H][C@@]12CCCN1C[C@@H](CCSC)N(Cc1coc3ccc(C)cc3c1=O)C2 gave A: -16.48%; B: -0.468%; C: 22.23%.
CCC(NS(=O)(=O)N1CCOCC1)c1ccccc1OC (stereo not shown) gave A: 0.2072%; B: -54.05%; C: -7.953%; D: -0.2555%.
O=C(O)C(c1ccc2c(c1)OCCO2)N1CCSCC1 (stereo not shown) gave A: 6.233%; B: -23.2%; C: 9.506%; D: 7.652%.
CCOc1ccc(S(=O)(=O)NCc2cccnc2N(C)C)cc1 gave B: 5.954%; C: 61.25%; D: 14.94%.
O=C(c1ccncc1)N1CC[C@@H]2CN(C3CCOCC3)CCO[C@@H]2C1 gave D: 0.3741%.
C/N=C1\c2cc3cc(OC)ccc3n2CCN1C.Cl gave B: -36.23%; C: 10.14%.

3 of the entries, repeated:

| Compound | A | B | C | D |
|---|---|---|---|---|
| `CC(=O)Nc1ccc(Oc2cc(C)nc(C3CCNCC3)c2)cc1` | - | - | - | 0.4958 |
| `CC(NC(=O)NCc1cc(Br)cs1)c1ccccn1` (stereo not shown) | 25.48 | - | 22.4 | -0.335 |
| `O=C(C1CC1)N1CCC[C@]2(C[C@@H](OCc3ccncc3)CO2)C1` | - | - | - | 3.783 |